Assay results reported in patent US6528618B1, “Anti-inflammatory peptides derived from C-reactive protein” (Yeda Research and Development Co. Ltd., priority 1997, dated 2003).
Results are given in words; binding and its absence hold for the method and conditions named. Some binding calls cover weakened binding; strength is not graded here.

Target: T1, human leukocyte elastase (human, UniProt P08246 30-267)
T1 construct: mature; Active enzyme purified from human neutrophils; also called hLE
T1 sequence (looked up): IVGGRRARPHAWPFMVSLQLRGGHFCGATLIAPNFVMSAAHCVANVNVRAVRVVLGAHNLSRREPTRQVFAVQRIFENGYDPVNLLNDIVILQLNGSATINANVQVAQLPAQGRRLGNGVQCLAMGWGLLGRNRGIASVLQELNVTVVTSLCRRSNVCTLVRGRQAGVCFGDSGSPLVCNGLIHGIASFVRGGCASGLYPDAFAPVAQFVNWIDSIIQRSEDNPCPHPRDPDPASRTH
Assay: incubation with enzyme, RP-HPLC degradation profile; enzyme inhibition

EILIFWSKDIGYSFT (Synthetic 15-mer; also called pep6) [peptide 6 (CRP62-76)]
binding: binds
